PubChem BioAssay AID504774 | Drosophila RNAi Screening Center, 2011
The deposit covers about 23,000 reagents; this is an unselected part of those with a known target gene and a result. 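Values are quantile-normalised luminescence on an arbitrary scale; higher means more cells surviving MMS.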 Names joined by + are all predicted targets of the reagent.

- Assay: 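Fly genes whose loss alters survival after alkylation damage to DNA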 (primary screen)
- System: Drosophila Kc167 cells
- Knock-down reagent: long dsRNA against Drosophila genes, about 0.25 µg dsRNA per well
- Duration: about 6 days: 3 days knock-down, then 3 days with or without MMS
- Treatment: methyl methanesulphonate 0.004% (w/v) for 3 days after knock-down
- Read-out: 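Viability in wells given MMS, read as ATP luminescence, normalised by quantiles plate by plate and averaged across replicates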
- Direction: mean viability with MMS and viability with MMS: higher = more surviving cells after MMS

| target | dsRNA | mean viability with MMS | viability with MMS, replicate 1 | viability with MMS, replicate 2 |
| --- | --- | --- | --- | --- |
| Mcm3 (Minichromosome maintenance 3) | DRSC18679 | 3.55e6 | 4.06e6 | 3.82e6 |
| CG34376 | DRSC14695 | 3.44e6 | 3.91e6 | 3.91e6 |
| CG34376 | DRSC14696 | 3.34e6 | 3.78e6 | 3.83e6 |
| CG34376 | DRSC14701 | 3.49e6 | 3.91e6 | 4.01e6 |
| CG5026 | DRSC10470 | 3.53e6 | 3.99e6 | 4.01e6 |
| grau (grauzone) | DRSC04691 | 3.10e6 | 3.67e6 | 3.62e6 |
| ATPsynbeta (ATP synthase, beta subunit) | DRSC17194 | 3.38e6 | 3.84e6 | 3.83e6 |
| CG5757 | DRSC06951 | 3.51e6 | 3.83e6 | 4.12e6 |
| Als2 (Amyotrophic lateral sclerosis 2) | DRSC11806 | 3.53e6 | 3.99e6 | 4.00e6 |
| eIF5 (eukaryotic translation initiation factor 5) | DRSC20165 | 3.37e6 | 3.86e6 | 3.62e6 |
| CG3457 | DRSC18509 | 3.70e6 | 4.24e6 | 4.12e6 |
| CG1773 | DRSC06688 | 3.77e6 | 4.22e6 | 4.31e6 |
| Nufip | DRSC10397 | 3.45e6 | 3.90e6 | 3.90e6 |
| bru1 (bruno 1) | DRSC01234 | 2.95e6 | 3.46e6 | 3.46e6 |
| bru1 (bruno 1) | DRSC01236 | 3.08e6 | 3.53e6 | 3.53e6 |
| bru1 (bruno 1) | DRSC01237 | 3.47e6 | 3.87e6 | 4.01e6 |
| bru1 (bruno 1) | DRSC01238 | 3.48e6 | 3.87e6 | 4.02e6 |
| bru1 (bruno 1) | DRSC03485 | 3.46e6 | 4.03e6 | 3.79e6 |
| Grl43a (Gustatory receptor-like 43a) | DRSC06383 | 3.46e6 | 3.94e6 | 3.93e6 |
| CG15385 | DRSC00399 | 3.58e6 | 4.00e6 | 4.13e6 |
| CG10184 | DRSC14204 | 3.51e6 | 4.01e6 | 3.97e6 |
| CG17140 + CG17139 | DRSC02585 | 3.49e6 | 3.92e6 | 3.99e6 |
| CG17140 + CG17139 | DRSC02586 | 3.59e6 | 3.97e6 | 4.17e6 |
| Nup54 (Nucleoporin 54kD) | DRSC07282 | 3.41e6 | 3.86e6 | 3.81e6 |
| Dlip2 (Dorsal interacting protein 2) | DRSC12346 | 3.58e6 | 4.04e6 | 4.06e6 |
| ttm2 (tiny tim 2) | DRSC08268 | 3.50e6 | 4.01e6 | 3.93e6 |
| Art9 (Arginine methyltransferase 9) | DRSC16584 | 3.50e6 | 3.99e6 | 3.94e6 |
| CG6443 | DRSC02958 | 3.42e6 | 3.67e6 | 4.02e6 |
| Uggt (UDP-glucose-glycoprotein glucosyltransferase) | DRSC11315 | 3.53e6 | 4.00e6 | 4.00e6 |
| CG14631 | DRSC17792 | 3.69e6 | 4.17e6 | 4.17e6 |
| CG14631 | DRSC17941 | 3.67e6 | 4.17e6 | 4.14e6 |
| La (La autoantigen-like) | DRSC03358 | 3.57e6 | 4.08e6 | 4.03e6 |
| CG9664 | DRSC00725 | 3.58e6 | 4.07e6 | 4.06e6 |
| CG32812 | DRSC18478 | 3.61e6 | 4.00e6 | 4.20e6 |
| TpnC41C (Troponin C at 41C) | DRSC04916 | 3.59e6 | 4.05e6 | 4.10e6 |
| ytr (yantar) | DRSC04306 | 3.54e6 | 4.00e6 | 3.99e6 |
| ytr (yantar) | DRSC22073 | 3.57e6 | 4.08e6 | 3.99e6 |
| Yip1d1 (Yip1 domain-containing 1) | DRSC02166 | 3.59e6 | 4.10e6 | 4.04e6 |
| CG10053 | DRSC12502 | 3.54e6 | 3.97e6 | 4.05e6 |
| CG32374 | DRSC10986 | 3.59e6 | 3.98e6 | 4.17e6 |
| bai (baiser) | DRSC14388 | 3.79e6 | 4.22e6 | 4.36e6 |
| Mks1 (Meckel syndrome, type 1) | DRSC19697 | 3.29e6 | 3.85e6 | 3.69e6 |

A portion taken from the entries so far, for reference:
| target | dsRNA | mean viability with MMS | viability with MMS, replicate 1 | viability with MMS, replicate 2 |
| --- | --- | --- | --- | --- |
| bru1 (bruno 1) | DRSC03485 | 3.46e6 | 4.03e6 | 3.79e6 |
| Grl43a (Gustatory receptor-like 43a) | DRSC06383 | 3.46e6 | 3.94e6 | 3.93e6 |
| CG15385 | DRSC00399 | 3.58e6 | 4.00e6 | 4.13e6 |
| CG10184 | DRSC14204 | 3.51e6 | 4.01e6 | 3.97e6 |
| CG17140 + CG17139 | DRSC02585 | 3.49e6 | 3.92e6 | 3.99e6 |
| CG17140 + CG17139 | DRSC02586 | 3.59e6 | 3.97e6 | 4.17e6 |
| Nup54 (Nucleoporin 54kD) | DRSC07282 | 3.41e6 | 3.86e6 | 3.81e6 |
| Dlip2 (Dorsal interacting protein 2) | DRSC12346 | 3.58e6 | 4.04e6 | 4.06e6 |
| ttm2 (tiny tim 2) | DRSC08268 | 3.50e6 | 4.01e6 | 3.93e6 |
| Art9 (Arginine methyltransferase 9) | DRSC16584 | 3.50e6 | 3.99e6 | 3.94e6 |

Next records:
| target | dsRNA | mean viability with MMS | viability with MMS, replicate 1 | viability with MMS, replicate 2 |
| --- | --- | --- | --- | --- |
| CG34428 | DRSC10119 | 3.42e6 | 3.80e6 | 3.93e6 |
| CG14966 | DRSC08425 | 3.40e6 | 3.85e6 | 3.87e6 |
| Gyc89Da (Guanylyl cyclase at 89Da) | DRSC15008 | 3.27e6 | 3.76e6 | 3.63e6 |
| CG4502 | DRSC02755 | 3.39e6 | 3.56e6 | 4.00e6 |
| CG4502 | DRSC23237 | 3.48e6 | 3.98e6 | 3.95e6 |
| CG4617 | DRSC18377 | 3.44e6 | 4.06e6 | 4.05e6 |
| RnrL (Ribonucleoside diphosphate reductase large subunit) | DRSC03413 | 3.24e6 | 3.64e6 | 3.62e6 |
| twf (twinfilin) | DRSC15466 | 3.54e6 | 4.07e6 | 3.97e6 |
| sgll (sugarlethal) | DRSC15442 | 3.56e6 | 4.05e6 | 4.04e6 |
| bys (by S6) | DRSC18748 | 3.52e6 | 3.76e6 | 4.11e6 |
| dmGlut (Dietary and metabolic glutamate transporter) | DRSC02835 | 3.33e6 | 3.67e6 | 3.82e6 |
| Dyro (Dpt-YFP repressor by overexpression) | DRSC10598 | 3.27e6 | 3.55e6 | 3.81e6 |
| stx (stuxnet) | DRSC18442 | 2.86e6 | 3.62e6 | 3.60e6 |
| stx (stuxnet) | DRSC18443 | 3.10e6 | 3.70e6 | 3.68e6 |
| stx (stuxnet) | DRSC23075 | 2.86e6 | 3.35e6 | 2.90e6 |
| Pfas (Phosphoribosylformylglycinamidine synthase) | DRSC03480 | 3.64e6 | 4.14e6 | 4.15e6 |
| Cortactin | DRSC16612 | 3.60e6 | 4.04e6 | 4.11e6 |
| CG31740 | DRSC01619 | 3.62e6 | 4.11e6 | 4.08e6 |
| CG5790 | DRSC02896 | 3.52e6 | 3.77e6 | 4.22e6 |
| Vps15 (Vacuolar protein sorting 15) | DRSC16553 | 3.78e6 | 4.32e6 | 4.25e6 |
| CG10505 | DRSC04075 | 3.65e6 | 4.14e6 | 4.13e6 |
| CG34198 | DRSC05803 | 3.41e6 | 3.90e6 | 3.85e6 |
| CG12540 | DRSC19471 | 3.71e6 | 4.20e6 | 4.13e6 |
| FoxK (Forkhead box K) | DRSC09859 | 3.58e6 | 4.09e6 | 4.04e6 |
| Desat2 (Desaturase 2) | DRSC15919 | 3.62e6 | 4.06e6 | 4.09e6 |
| ASPP | DRSC04305 | 3.00e6 | 3.59e6 | 3.66e6 |
| ASPP | DRSC23069 | 3.13e6 | 3.43e6 | 3.54e6 |
| arm (armadillo) | DRSC18738 | 3.59e6 | 4.10e6 | 4.04e6 |
| CG15253 | DRSC01871 | 3.49e6 | 3.96e6 | 3.96e6 |
| mrva (minerva) | DRSC11009 | 3.58e6 | 4.02e6 | 4.10e6 |
| mrva (minerva) | DRSC21842 | 3.34e6 | 3.93e6 | 3.81e6 |
| CG46385 | DRSC06425 | 2.94e6 | 3.51e6 | 3.52e6 |
| CG46385 | DRSC06557 | 3.42e6 | 3.84e6 | 3.94e6 |
| Tehao | DRSC03449 | 3.51e6 | 4.05e6 | 3.92e6 |
| CG42534 | DRSC14722 | 3.30e6 | 3.68e6 | 3.68e6 |
| CG42534 | DRSC14759 | 3.20e6 | 3.61e6 | 3.58e6 |
| CG42534 | DRSC16072 | 3.58e6 | 4.13e6 | 3.99e6 |
| CG42534 | DRSC23131 | 3.64e6 | 4.27e6 | 4.00e6 |
| CG42534 | DRSC23246 | 2.63e6 | 3.56e6 | 2.20e6 |
| Act5C (Actin 5C) | DRSC17723 | 3.56e6 | 4.02e6 | 4.08e6 |
| SCOT (Succinyl-CoA:3-ketoacid CoA transferase) | DRSC08186 | 3.55e6 | 4.04e6 | 4.00e6 |
| inv (invected) | DRSC07633 | 3.38e6 | 3.86e6 | 3.36e6 |
| mtgo (miles to go) | DRSC02245 | 3.16e6 | 3.61e6 | 3.61e6 |
| mtgo (miles to go) | DRSC02246 | 3.32e6 | 3.79e6 | 3.74e6 |
| mtgo (miles to go) | DRSC02769 | 3.57e6 | 3.95e6 | 4.16e6 |
| mtgo (miles to go) | DRSC21392 | 3.44e6 | 4.13e6 | 3.74e6 |
| mtgo (miles to go) | DRSC21743 | 3.43e6 | 3.90e6 | 3.93e6 |
